Source: PubChem BioAssay AID624297 (National Center for Advancing Translational Sciences (NCATS), 2012)
In all, about 340,000 compounds went through this assay and about 6,200 (1.8%) were called active. This list was built around the results that the source calls inconclusive (neither active nor inactive); the mix of calls is not that of the screen. Calls come from the whole dose curve; as a rule, active = well fitted activation curve with a large enough effect; inconclusive = small, poorly fitted or top-dose-only effect; inactive = no such curve, though single readings can be large or run the other way. Potencies beside an inconclusive call are fits to weak or partial responses and may not hold up.

experiment: A quantitative high throughput screen for small molecules that induce DNA re-replication in SW480 colon adenocarcinoma cells.; note: nearly all actives have a fitted effect of over 55% in size; for re-replication activation: % of control where 0% means no effect; settings: Hoechst DNA content imaging, 48 h; re-replication activation: at 46.1 µM (top of the series) unless noted
Procedure, shortened: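 Treated cells incubate 48 hr (37 C, 5% CO2), are stained 40 min with Hoechst, and nuclear fluorescence is enumerated; a rise in nuclei with high DNA signal marks re-replication.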
Potency is the fitted concentration of half-maximal effect.

**Q.** Which Potency does the source give for O=C(/C=N/O)NCc1cccnc1 here?
**A.** active: 13 µM

**Q.** Which Potency does the source give for CN1C(=O)Cc2cc(S(=O)(=O)Nc3ccc(Cl)cc3)ccc21 here?
**A.** inactive

**Q.** With CCCCc1nc2cc(C(=O)N3CCCCC3C(=O)OC)ccc2o1 (centres undefined) as the compound, how does the Potency read?
**A.** inactive

**Q.** For CCN(CC)S(=O)(=O)c1ccc(NC(=O)c2ccc(OCC3CCCO3)cc2)cc1 (centres undefined), which Potency is on record?
**A.** inactive

**Q.** Which Potency does the source give for CC1CCCCC1NC(=O)/C(C#N)=C/c1ccccc1F (centres undefined) here?
**A.** inconclusive: 29.1 µM [activator, single point]

**Q.** With CCC(C)CNC(=O)c1cccc(OC2CCN(CC(C)(C)C)CC2)c1 (centres undefined) as the compound, how does the re-replication activation read?
**A.** inactive: -1.27% [at 1.84 µM]

**Q.** For Cc1ccc(NC(=O)C2CCN(S(C)(=O)=O)CC2)cc1Cl, which Potency is on record?
**A.** inconclusive: 0.731 µM [activator, full curve, poor fit]

**Q.** Which Potency does the source give for COCCN(C/C=C/c1ccccc1)C/C=C/c1ccccc1 here?
**A.** inconclusive: 20.6 µM [activator, single point]

**Q.** For CSc1ccc(Cl)c(C(=O)N2CCOc3ccccc32)c1, which Potency is on record?
**A.** inconclusive: 18.4 µM [activator, partial curve, poor fit]

**Q.** With Cc1ccc(C)c(-n2nnnc2Sc2nnnn2-c2ccccc2)c1 as the compound, how does the Potency read?
**A.** active: 9.2 µM

**Q.** With COc1ccc(Cl)cc1N(CC(=O)Nc1ccccc1C(=O)N1CCOCC1)S(C)(=O)=O as the compound, how does the Potency read?
**A.** inactive

**Q.** Which Potency does the source give for Cc1cccc(OCc2ccc(C(=O)Nc3ccc(F)cc3)cc2)c1 here?
**A.** inconclusive: 2.59 µM [activator, single point]

**Q.** For Cc1cccc(NC(=S)N(Cc2ccco2)C(C)c2cccs2)c1 (centres undefined), which Potency is on record?
**A.** inconclusive: 7.31 µM [activator, partial curve, poor fit]

**Q.** For Cc1cc(C(=O)COC(=O)c2cc(Cl)ccc2N)c(C)n1Cc1ccco1, which Potency is on record?
**A.** inconclusive: 29.1 µM [activator, single point]

**Q.** With CCOC(=O)c1c(C)cc(C)[nH]c1=O as the compound, how does the Potency read?
**A.** inconclusive: 3.66 µM [activator, single point]

**Q.** For CCOC(=O)c1c(C)[nH]c(C(=O)N/N=C/c2ccc(OC)c(OC)c2)c1C, which Potency is on record?
**A.** inconclusive: 3.66 µM [activator, single point]

**Q.** Which Potency does the source give for Cc1ccc(N2NC(=O)/C(=C/C=C/c3ccco3)C2=O)cc1C here?
**A.** inconclusive: 29.1 µM [activator, single point]

**Q.** Which Potency does the source give for NC(=O)CCCn1c(C(=O)c2ccc(Cl)cc2)c2ccc([N+](=O)[O-])cc2[n+]1[O-] here?
**A.** inconclusive: 29.1 µM [activator, single point]

**Q.** With C=C(C)CNC(=S)N=Nc1c(O)[nH]c2ccc([N+](=O)[O-])cc12 as the compound, how does the Potency read?
**A.** inactive

**Q.** Which Potency does the source give for Cc1ccc2[nH]c(=O)c(CN(Cc3ccco3)C(=O)c3ccncc3)cc2c1 here?
**A.** inconclusive: 16.4 µM [activator, single point]

**Q.** For C/C(CCC(=O)OC[C@H]1O[C@H](C#Cc2ccccc2)C=C[C@@H]1Oc1ccc(C)cc1)=N\OC[C@@H](O)[C@H]1O[C@@H]2OC(C)(C)O[C@@H]2[C@H]1O, which Potency is on record?
**A.** inconclusive: 29.1 µM [activator, single point]

**Q.** Which Potency does the source give for CN(C(=O)COC(=O)c1cnc(Cl)c(Cl)c1)C1CCS(=O)(=O)C1 (centres undefined) here?
**A.** inactive

**Q.** Which Potency does the source give for Cc1cc(C)n(-c2ccc(C(=O)NCC(c3ccco3)N3CCCC3)cc2)n1 (centres undefined) here?
**A.** inconclusive: 6.51 µM [activator, partial curve, poor fit]

**Q.** For CCOC(=O)N1CCc2[nH]c3ccc(C)cc3c2C1, which Potency is on record?
**A.** inconclusive: 25.9 µM [activator, single point]

**Q.** For O=c1c2cc(NC(=S)NC3CCN(Cc4ccccc4)CC3)ccc2nc2n1CCCCC2, which Potency is on record?
**A.** inconclusive: 23.1 µM [activator, partial curve, poor fit]

**Q.** For CCCn1nc(C(=O)N2CC(=O)Nc3ccccc32)c2ccccc2c1=O, which Potency is on record?
**A.** active: 14.6 µM

**Q.** Which Potency does the source give for O=C(/C=C/c1c(F)cccc1Cl)Nc1nn[nH]n1 here?
**A.** inconclusive: 23.1 µM [activator, single point]

**Q.** With CCOC(=O)CSC1=N/C(=C/c2ccc(-n3cncn3)cc2)C(=O)N1C(C)=O as the compound, how does the Potency read?
**A.** inconclusive: 18.4 µM [activator, single point]

**Q.** Which Potency does the source give for O=C(c1ccc(F)cc1)c1ccc(N2CCCC2)cc1 here?
**A.** inconclusive: 18.4 µM [activator, partial curve, poor fit]

**Q.** Which Potency does the source give for Cc1ccc2nc3c(cc(C(=O)NCCc4ccccc4)c(=N)n3CC3CCCO3)c(=O)n2c1 (centres undefined) here?
**A.** active: 11.6 µM

**Q.** Which Potency does the source give for COC(=O)c1cc(-c2ccc(S(=O)(=O)N3CCCC(C)C3)cc2)c(C(F)(F)F)s1 (centres undefined) here?
**A.** inactive

**Q.** Which Potency does the source give for COc1ccc(OC)c(C(c2nnnn2C(C)(C)C)N2CCc3ccccc3C2)c1 (centres undefined) here?
**A.** inconclusive: 25.9 µM [activator, single point]

**Q.** With COCCCNC(=S)N/N=C/c1ccccc1O as the compound, how does the Potency read?
**A.** inconclusive: 0.116 µM [activator, full curve, poor fit]

**Q.** With O=C(N/N=C\c1c(O)ccc2ccccc12)c1ccc(Cn2cccn2)o1 as the compound, how does the Potency read?
**A.** inconclusive: 2.31 µM [activator, full curve]

**Q.** Which Potency does the source give for O=C(NCCCN1CCN(c2cccc(Cl)c2)CC1)C1CCC(=O)N1Cc1ccccc1Cl (centres undefined) here?
**A.** inconclusive: 32.6 µM [activator, partial curve, poor fit]

**Q.** Which Potency does the source give for COc1ccc(CCn2c(N3CCN(C)CC3)nc3c2c(=O)[nH]c(=O)n3C)cc1 here?
**A.** inactive

**Q.** With O=C1C(Cl)=C(Nc2cccc(O)c2)C(=O)N1Cc1ccccc1 as the compound, how does the Potency read?
**A.** inactive

**Q.** Which Potency does the source give for CCN(CC)S(=O)(=O)c1ccc(N/N=C(\C)c2ccc3c(c2)OCO3)c([N+](=O)[O-])c1 here?
**A.** inconclusive: 3.26 µM [activator, partial curve, poor fit]

**Q.** Which Potency does the source give for N#CC(=C(O)COC(=O)CCC1CCCCC1)c1nc2ccccc2[nH]1 here?
**A.** inactive

**Q.** For Cc1cc(OC(=O)c2ccc(Cl)cc2Cl)c([N+](=O)[O-])c(=O)[nH]1, which Potency is on record?
**A.** inactive

**Q.** Which Potency does the source give for COc1cc2[nH]c3c(N4CCN(c5ccc(Cl)cc5)CC4)ncnc3c2cc1OC here?
**A.** inconclusive: 29.1 µM [activator, single point]

**Q.** With COc1ccccc1NS(=O)(=O)c1cc(N2Cc3ccccc3C2=N)ccc1N1CCOCC1 as the compound, how does the Potency read?
**A.** inactive

**Q.** With O=[N+]([O-])c1ccc(S(=O)(=O)N2CCN(Cc3ccco3)CC2)cc1 as the compound, how does the Potency read?
**A.** inactive

**Q.** Which Potency does the source give for Clc1ccc(Cn2ncc3c(NCc4ccco4)ncnc32)c(Cl)c1 here?
**A.** inconclusive: 25.9 µM [activator, single point]
